PubChem BioAssay AID602196 – INSERM | 2012
Screen: 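Modifiers of cisplatin sensitivity in A549 cells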. Cells: human A549 lung cancer cells. Knock-down reagent: siRNA pair against human genes. Duration: 48 h transfection before cisplatin; time from cisplatin to read-out not stated. Challenge: cisplatin at a dose killing half of control-siRNA cells; exact dose and duration not given. Read-out: 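Cisplatin cell death as a shift from the 50% death seen with control siRNA; siRNAs toxic or growth-blocking alone scored 0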. Reading the numbers: two-siRNA summed score (-2 to +2): higher = both siRNAs protect from cisplatin killing; -2 means both sensitise; mean protection from cisplatin (shift in death) and protection from cisplatin (shift in death), siRNA C and protection from cisplatin (shift in death), siRNA D: higher = protection from cisplatin killing. Rule for the call: 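siRNAs harmful alone (LDH or WST-1) get 0; others get +1 for less and -1 for more cisplatin killing; genes are active when the two siRNAs give the same sign, summing to ±2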. Meaning of the calls: active = both siRNAs shift cisplatin killing the same way; inactive = no consistent shift, or siRNA harmful alone.
In all, the deposit lists about 23,000 reagents; shown is an unselected part. In the full data, 455 (2%) got an active call. 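Active includes both protection and sensitisation; some change values fall well beyond the stated -50 to +50 range.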 A number with no mark means an inactive call. No sequences are given here. Not given: the amount of reagent.

Target gene	two-siRNA summed score (-2 to +2)	mean protection from cisplatin (shift in death) (%)	protection from cisplatin (shift in death), siRNA C (%)	protection from cisplatin (shift in death), siRNA D (%)
TBCEL	0	9.3	8.9	9.7
CCL27	0	-14	-30.3	2.4
LOC441208	0	-2.4	-6.1	1.3
ASB13	0	0.5	-8.1	9.1
OR2J3	1	6.8	1.8	11.8
TDRD7	0	6.4	7.7	5.2
HAPSTR1	0	7.6	8.5	6.7
LOC391014	1	7.6	10.4	4.7
LOC338731	-1	-12.2	-6.3	-18.2
GTPBP6	1	8.9	18.6	-0.8
ZDHHC17	0	-29.7	-9.6	-49.7
RWDD1	1	19.5	27	12
CSF2	0	1	-3.8	5.7
LOC391738	0	5.6	7.7	3.4
PSMB6	0	12.6	9.8	15.4
SCAND1	0	6.1	8	4.2
LHPP	0	0.5	-7.5	8.5
CAPZA3	0	-5.7	-1.5	-9.9
LOC400070	0	5.8	16.1	-4.4
NDUFV3	0	17.6	13.4	21.9
TMEM37	0	7.6	9.8	5.5
ITGBL1	0	0.8	11	-9.5
AMY2A	1	13.1	17.4	8.8
ZSCAN1	1	8.9	0.5	17.3
BMPER	0	6.8	4.5	9.2
SCO1	1	8.8	1.5	16.2
JADE3	0	9.6	3.4	15.8
SLC25A15	0	24.7	36.7	12.7
SYNDIG1	0	-0.1	2.8	-2.9
LOC255798	0	-1.2	-7.9	5.6
LINC01558	0	4.9	13.6	-3.9
PTGFR	1	5.2	-9.4	19.7
LOC389773	0	8.3	1.4	15.2
FOXD4L1	0	17.2	23.8	10.7
LOC284964	0	21.3	24.8	17.8
SALL1	0	-0.6	8	-9.2
EDC4	0	11.4	10.6	12.3
FAM111A	0	8.6	8.6	8.6
CDRT15	0	18.7	29.7	7.6
ZNF396	0	-1.8	13.8	-17.5
LOC401252	1	15.7	18.4	13
LOC388148	0	4.7	7.2	2.3
TDRD3	0	1.4	12.1	-9.3
DMRTC2	-1	-10.3	-25.2	4.6
ACSL5	0	9.5	5.9	13.2
FOXI2	0	7.9	4.9	10.9
LOC196541	0	8.9	16.6	1.3
LOC149603	0	11.6	15.2	8
ATAD1	0	6.1	0.6	11.7
ZNF598	0	3.9	13.2	-5.5
RINL	0	2	10.1	-6.2
GLS2	0	3.5	-2.2	9.1
LOC442132	0	3.6	10.5	-3.2
VAMP5	1	6.2	-5.8	18.1
APBB2	0	-1.9	1.4	-5.1
LOC399969	0	-5.1	-15.7	5.6
LOC389188	0	12.3	-0.2	24.9

Reformatted: entries from further up.
Target gene,two-siRNA summed score (-2 to +2),mean protection from cisplatin (shift in death) (%),"protection from cisplatin (shift in death), siRNA C (%)","protection from cisplatin (shift in death), siRNA D (%)"
GTPBP6,1,8.9,18.6,-0.8
ZDHHC17,0,-29.7,-9.6,-49.7
RWDD1,1,19.5,27,12
CSF2,0,1,-3.8,5.7
LOC391738,0,5.6,7.7,3.4
PSMB6,0,12.6,9.8,15.4
SCAND1,0,6.1,8,4.2
LHPP,0,0.5,-7.5,8.5
